According to PMC11570472, “Activity and phosphatidylcholine transfer protein interactions of skeletal muscle thioesterase Them2 enable hepatic steatosis and insulin resistance” (The Journal of Biological Chemistry, 2024):
These are yes or no findings as the source states them, for the method shown. Binding seen in cells or lysates may run through a third protein. Some binding calls cover weakened binding; strength is not graded here. Where a sequence is shown, tags or fusion partners need not be part of it.

Legend:
[1] = target: T1, FLAG-tagged N50A/D65A Them2 expressed in mouse skeletal muscle from AAV8-Mck-N50A/D65A Them2 (mouse) (UniProt Q9CQR4); assay: co-IP; anti-FLAG magnetic agarose; gastrocnemius lysates 7 days after i.m. AAV8 injection; lysis buffer 25 mM Tris-HCl pH 7.4, 150 mM NaCl, 1 mM EDTA, 1% NP-40, 5% glycerol; 37 °C, 40 min; immunoblot
T1 sequence: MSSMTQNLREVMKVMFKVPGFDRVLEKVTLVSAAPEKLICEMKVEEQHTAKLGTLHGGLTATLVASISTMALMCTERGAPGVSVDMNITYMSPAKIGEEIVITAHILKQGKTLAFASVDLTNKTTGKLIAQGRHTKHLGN

[2] = target: T2, FLAG-tagged WT Them2 expressed in mouse skeletal muscle from AAV8-Mck-WT Them2 (mouse) (UniProt Q9CQR4); assay: as above
T2 sequence: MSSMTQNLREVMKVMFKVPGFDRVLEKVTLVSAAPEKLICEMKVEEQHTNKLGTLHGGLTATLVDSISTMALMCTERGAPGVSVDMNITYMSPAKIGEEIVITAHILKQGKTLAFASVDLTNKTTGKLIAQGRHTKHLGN

binding [1]: binds
binding [2]: binds
B1: phosphatidylcholine transfer protein (PC-TP) (protein, UniProt P53808 1-214)
chain: MAGAACCFSDEQFREACAELQKPALTGADWQLLVEASGITIYRLLDQPSGLYEYKVFGVLEGCSPALLTDVYMDLDYRKQWDQYVKELYEKESDEQMVAYWEVKYPFPLSNRDYVYTRQRRDLDVDRRKIYVVLAQSISAPQFPEKSGVIRVKQYKQSLAIESDGKKGSRVFMYYFDNPGGQIPSWLINWAAKNGVPNFLKDMVKACQNYHKKT
